No constants are given. Whether binding was seen depends on the method and setting. Binding calls can cover weak binding; strength is not graded here.
Molecular target: T1, SOCS5 175–244 fragment (mouse) (UniProt O54928)
T1 sequence: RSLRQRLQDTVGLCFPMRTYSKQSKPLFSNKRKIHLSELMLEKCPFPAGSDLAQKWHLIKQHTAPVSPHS
Test: SPR; SOCS5 175-244 immobilised by amine coupling on a CM5 chip; JAK JH1 domains (62.5 nM to 2 µM) injected; 10 mM HEPES pH 8.0, 200 mM NaCl, 3.0 mM EDTA, 0.05% Tween20; steady-state fit, apparent KD; BIAcore3000; both purified

Sequences of proteins named here, by UniProt entry; tags and fusion partners are left off. A change or cut given only in a name is not applied to a line headed by its entry.
UniProt P29597: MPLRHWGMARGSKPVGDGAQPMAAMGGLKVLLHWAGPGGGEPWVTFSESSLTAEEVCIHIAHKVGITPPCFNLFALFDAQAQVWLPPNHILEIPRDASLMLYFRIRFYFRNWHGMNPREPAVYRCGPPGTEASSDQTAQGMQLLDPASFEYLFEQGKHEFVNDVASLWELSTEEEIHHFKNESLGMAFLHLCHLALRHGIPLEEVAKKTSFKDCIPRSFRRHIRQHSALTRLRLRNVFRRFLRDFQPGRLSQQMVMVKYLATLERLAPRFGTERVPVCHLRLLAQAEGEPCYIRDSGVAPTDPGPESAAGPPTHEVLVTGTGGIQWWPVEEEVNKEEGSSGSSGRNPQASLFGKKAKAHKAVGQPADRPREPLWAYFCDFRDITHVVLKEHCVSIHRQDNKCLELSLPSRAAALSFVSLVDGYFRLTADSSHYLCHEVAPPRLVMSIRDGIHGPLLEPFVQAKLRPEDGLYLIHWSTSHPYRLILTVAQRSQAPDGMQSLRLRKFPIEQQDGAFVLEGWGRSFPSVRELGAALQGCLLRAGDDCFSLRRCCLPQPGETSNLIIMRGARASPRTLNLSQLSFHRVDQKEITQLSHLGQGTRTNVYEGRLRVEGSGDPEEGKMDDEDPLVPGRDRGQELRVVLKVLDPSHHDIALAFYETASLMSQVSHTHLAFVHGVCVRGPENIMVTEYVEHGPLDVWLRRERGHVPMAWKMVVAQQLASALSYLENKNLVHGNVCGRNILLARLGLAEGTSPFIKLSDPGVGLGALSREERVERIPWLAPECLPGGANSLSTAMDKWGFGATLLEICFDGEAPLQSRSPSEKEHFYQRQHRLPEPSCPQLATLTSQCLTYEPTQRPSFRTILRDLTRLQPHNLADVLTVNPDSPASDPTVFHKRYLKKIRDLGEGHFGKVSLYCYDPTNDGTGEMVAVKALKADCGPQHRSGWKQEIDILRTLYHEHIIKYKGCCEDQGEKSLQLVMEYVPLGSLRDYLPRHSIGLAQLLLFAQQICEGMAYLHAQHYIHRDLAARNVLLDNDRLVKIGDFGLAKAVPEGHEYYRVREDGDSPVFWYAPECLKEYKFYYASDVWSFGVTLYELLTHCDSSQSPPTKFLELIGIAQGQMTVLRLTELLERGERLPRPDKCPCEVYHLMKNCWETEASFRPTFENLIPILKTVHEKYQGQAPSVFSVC
UniProt P52333: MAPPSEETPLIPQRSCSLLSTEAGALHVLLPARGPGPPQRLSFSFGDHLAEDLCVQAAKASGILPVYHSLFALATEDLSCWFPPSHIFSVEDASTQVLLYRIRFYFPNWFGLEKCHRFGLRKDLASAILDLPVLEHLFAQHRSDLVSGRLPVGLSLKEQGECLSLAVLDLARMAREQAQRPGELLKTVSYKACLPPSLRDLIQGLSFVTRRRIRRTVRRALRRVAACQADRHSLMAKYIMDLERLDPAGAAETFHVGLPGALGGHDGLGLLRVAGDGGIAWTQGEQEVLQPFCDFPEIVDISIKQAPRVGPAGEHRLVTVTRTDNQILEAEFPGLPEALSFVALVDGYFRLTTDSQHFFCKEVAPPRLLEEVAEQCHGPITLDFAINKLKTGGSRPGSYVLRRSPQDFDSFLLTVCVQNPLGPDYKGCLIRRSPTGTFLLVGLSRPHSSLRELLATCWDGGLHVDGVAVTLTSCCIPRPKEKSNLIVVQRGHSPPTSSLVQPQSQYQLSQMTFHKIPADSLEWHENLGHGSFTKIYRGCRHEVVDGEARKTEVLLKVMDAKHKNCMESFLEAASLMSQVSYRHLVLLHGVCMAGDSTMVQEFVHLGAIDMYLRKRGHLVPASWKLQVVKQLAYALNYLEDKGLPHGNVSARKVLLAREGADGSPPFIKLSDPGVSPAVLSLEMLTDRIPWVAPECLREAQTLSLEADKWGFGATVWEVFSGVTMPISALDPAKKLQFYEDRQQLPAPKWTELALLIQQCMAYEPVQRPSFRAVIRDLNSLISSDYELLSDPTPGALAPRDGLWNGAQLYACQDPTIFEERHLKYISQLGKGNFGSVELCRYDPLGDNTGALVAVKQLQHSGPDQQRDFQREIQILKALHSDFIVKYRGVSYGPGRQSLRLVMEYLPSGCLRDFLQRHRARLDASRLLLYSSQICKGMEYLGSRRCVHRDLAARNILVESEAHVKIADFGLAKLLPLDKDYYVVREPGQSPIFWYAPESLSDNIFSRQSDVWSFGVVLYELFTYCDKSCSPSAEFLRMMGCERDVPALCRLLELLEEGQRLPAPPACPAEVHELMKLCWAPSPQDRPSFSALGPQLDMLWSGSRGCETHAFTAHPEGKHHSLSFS

binding | Substance
binds | TYK2 JH1 domain (from UniProt P29597) (domain or fragment)
binds | JAK3 JH1 domain (from UniProt P52333) (domain or fragment)

From PMC3749136
